Assay results taken from publication PMC7466560.
These are yes or no findings as the source states them, for the method shown. Binding seen in cells or lysates may run through a third protein. Some entries that bind do so weakly or less than the wild type.

Protein sequences, listed by entry. Tags and fused reporters are not part of them.
UniProt Q9NQB0: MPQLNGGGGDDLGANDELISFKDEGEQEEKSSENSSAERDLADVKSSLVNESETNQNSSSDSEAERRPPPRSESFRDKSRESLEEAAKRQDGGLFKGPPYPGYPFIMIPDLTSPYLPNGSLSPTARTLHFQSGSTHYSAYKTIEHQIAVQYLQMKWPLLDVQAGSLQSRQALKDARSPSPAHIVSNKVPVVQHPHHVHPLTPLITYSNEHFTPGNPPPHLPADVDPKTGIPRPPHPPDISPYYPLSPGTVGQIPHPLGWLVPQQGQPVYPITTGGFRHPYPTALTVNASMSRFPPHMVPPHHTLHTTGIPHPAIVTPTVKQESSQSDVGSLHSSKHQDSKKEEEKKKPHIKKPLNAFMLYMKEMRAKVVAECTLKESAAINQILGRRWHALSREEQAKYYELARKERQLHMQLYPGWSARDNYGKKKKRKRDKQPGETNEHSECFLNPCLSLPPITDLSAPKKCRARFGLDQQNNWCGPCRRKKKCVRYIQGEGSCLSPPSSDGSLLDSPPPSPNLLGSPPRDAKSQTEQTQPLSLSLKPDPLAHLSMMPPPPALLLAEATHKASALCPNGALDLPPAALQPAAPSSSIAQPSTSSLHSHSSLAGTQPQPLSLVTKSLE
UniProt Q15672: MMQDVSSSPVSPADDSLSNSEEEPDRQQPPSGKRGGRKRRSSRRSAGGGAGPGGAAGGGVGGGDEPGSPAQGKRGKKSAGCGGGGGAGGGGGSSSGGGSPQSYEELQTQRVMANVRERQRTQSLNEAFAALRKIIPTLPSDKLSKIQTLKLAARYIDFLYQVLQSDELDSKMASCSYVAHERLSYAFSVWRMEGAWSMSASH
UniProt P35222: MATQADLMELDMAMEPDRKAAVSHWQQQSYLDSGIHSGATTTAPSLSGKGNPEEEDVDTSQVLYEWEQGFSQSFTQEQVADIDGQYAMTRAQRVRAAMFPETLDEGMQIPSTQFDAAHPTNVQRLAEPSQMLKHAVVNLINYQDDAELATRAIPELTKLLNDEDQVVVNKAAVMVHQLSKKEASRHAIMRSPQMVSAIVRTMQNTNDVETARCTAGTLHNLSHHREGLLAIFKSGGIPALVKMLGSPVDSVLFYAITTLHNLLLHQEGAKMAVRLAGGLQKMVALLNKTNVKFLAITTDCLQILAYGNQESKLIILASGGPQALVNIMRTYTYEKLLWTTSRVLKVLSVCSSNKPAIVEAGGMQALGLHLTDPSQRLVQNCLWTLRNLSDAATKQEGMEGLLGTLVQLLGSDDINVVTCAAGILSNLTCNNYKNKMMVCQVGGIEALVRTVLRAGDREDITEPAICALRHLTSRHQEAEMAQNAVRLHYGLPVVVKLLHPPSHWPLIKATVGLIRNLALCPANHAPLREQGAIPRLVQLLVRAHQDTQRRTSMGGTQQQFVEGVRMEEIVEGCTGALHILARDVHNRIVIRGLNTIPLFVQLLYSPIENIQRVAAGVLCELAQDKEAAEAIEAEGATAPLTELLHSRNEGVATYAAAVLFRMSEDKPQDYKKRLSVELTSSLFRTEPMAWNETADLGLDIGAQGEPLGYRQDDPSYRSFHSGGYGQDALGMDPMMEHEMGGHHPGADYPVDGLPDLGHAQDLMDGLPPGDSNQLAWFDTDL

How the values were obtained:
[1] = biological target: Tcf4 (human (endogenous in primary dermal papilla cells)) (UniProt Q9NQB0); test: co-IP; lysate of cultured DPCs (RIPA buffer) incubated overnight with anti-Twist1, anti-Tcf4 or IgG (negative control); protein A/G agarose; eluate analysed by Western blot
[2] = biological target: Twist1 (human (endogenous in primary dermal papilla cells)) (UniProt Q15672); test: as above

Substance | binding [1] | binding [2]
Twist1 (from UniProt Q15672 1-202) | binds | –
β-catenin (from UniProt P35222 1-781) | – | binds
Tcf4 (from UniProt Q9NQB0 1-619) | – | binds
